The list shows a part of the results. Small differences around the control level are noise.
Each target was assayed with CN[C@@H]1C[C@H]2O[C@@](C)([C@@H]1OC)n1c3ccccc3c3c4c(c5c6ccccc6n2c5c31)C(=O)NC4 [staurosporine] (assay: log2 fold change of tryptic peptide abundance, ligand vs vehicle (limited proteolysis) (log2 ratio); higher = more trypsin-susceptible (destabilized)). Details: ligand concentration: 20 uM; sample: K562 cleared lysate; digestion: 4 min, 22 C (HT-PELSA RT4min, Orbitrap Astral).

Sequences of proteins named here, by UniProt entry; tags and fusion partners are left off. A change or cut given only in a name is not applied to a line headed by its entry.
UniProt O75638, whole entry: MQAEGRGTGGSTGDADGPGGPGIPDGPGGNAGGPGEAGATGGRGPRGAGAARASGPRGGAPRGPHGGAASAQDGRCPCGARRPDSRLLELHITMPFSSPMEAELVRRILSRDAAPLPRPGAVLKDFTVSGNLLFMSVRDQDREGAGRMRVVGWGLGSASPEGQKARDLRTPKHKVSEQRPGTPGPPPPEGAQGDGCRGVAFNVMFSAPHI
UniProt O75897: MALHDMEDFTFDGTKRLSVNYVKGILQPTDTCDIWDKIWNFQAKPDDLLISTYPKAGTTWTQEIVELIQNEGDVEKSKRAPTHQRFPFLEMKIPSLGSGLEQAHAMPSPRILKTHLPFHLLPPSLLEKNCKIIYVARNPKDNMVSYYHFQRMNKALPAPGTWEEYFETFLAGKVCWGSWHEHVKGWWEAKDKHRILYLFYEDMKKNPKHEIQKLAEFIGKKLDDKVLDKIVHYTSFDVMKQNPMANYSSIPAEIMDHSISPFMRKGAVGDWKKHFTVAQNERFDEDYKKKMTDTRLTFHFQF
UniProt O95786: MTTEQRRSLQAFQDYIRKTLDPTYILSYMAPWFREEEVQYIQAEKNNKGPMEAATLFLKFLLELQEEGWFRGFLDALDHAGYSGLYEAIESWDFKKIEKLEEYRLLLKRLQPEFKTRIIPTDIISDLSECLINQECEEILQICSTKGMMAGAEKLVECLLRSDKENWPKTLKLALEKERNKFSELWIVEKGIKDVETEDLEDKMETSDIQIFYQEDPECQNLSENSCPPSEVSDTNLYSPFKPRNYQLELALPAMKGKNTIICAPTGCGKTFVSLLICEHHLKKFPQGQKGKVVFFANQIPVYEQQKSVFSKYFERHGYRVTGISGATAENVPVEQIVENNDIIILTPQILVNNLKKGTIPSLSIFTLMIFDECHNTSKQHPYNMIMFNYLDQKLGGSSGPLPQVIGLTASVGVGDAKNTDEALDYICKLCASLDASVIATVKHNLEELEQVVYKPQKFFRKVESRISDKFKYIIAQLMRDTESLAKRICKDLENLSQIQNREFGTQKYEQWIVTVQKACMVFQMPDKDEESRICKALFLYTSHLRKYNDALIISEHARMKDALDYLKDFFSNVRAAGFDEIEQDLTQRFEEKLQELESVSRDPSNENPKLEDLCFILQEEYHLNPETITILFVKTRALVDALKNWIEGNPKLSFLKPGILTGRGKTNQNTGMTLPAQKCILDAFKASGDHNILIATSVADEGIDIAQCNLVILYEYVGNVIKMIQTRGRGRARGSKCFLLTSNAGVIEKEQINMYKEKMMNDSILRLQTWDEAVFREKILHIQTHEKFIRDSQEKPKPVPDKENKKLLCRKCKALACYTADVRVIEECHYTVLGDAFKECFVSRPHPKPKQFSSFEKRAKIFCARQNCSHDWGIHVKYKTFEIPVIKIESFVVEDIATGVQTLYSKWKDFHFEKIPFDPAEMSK
UniProt O95544: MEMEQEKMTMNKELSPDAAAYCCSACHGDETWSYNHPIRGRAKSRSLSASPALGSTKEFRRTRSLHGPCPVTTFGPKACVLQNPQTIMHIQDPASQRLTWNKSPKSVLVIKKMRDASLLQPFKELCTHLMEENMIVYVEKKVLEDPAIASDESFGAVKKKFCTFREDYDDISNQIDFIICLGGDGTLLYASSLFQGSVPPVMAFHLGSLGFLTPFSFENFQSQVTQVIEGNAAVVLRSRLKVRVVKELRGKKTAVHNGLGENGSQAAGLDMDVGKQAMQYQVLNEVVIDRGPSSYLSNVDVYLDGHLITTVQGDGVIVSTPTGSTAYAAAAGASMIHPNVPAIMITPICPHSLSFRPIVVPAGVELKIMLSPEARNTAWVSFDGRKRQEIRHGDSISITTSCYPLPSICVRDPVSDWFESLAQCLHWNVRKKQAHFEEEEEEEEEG
UniProt O94763, whole entry: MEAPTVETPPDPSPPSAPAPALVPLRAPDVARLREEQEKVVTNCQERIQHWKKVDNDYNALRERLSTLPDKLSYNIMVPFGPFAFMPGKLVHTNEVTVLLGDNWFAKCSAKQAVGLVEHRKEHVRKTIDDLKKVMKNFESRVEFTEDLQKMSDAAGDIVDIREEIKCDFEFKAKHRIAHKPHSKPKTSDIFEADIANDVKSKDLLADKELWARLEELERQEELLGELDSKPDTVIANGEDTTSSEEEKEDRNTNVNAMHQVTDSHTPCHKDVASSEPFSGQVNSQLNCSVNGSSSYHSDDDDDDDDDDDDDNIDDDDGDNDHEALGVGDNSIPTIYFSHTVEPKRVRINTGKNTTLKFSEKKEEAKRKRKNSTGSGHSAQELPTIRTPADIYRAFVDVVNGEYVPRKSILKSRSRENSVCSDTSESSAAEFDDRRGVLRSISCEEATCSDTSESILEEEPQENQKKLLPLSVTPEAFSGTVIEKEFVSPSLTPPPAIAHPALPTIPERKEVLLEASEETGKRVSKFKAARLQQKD
UniProt O75528: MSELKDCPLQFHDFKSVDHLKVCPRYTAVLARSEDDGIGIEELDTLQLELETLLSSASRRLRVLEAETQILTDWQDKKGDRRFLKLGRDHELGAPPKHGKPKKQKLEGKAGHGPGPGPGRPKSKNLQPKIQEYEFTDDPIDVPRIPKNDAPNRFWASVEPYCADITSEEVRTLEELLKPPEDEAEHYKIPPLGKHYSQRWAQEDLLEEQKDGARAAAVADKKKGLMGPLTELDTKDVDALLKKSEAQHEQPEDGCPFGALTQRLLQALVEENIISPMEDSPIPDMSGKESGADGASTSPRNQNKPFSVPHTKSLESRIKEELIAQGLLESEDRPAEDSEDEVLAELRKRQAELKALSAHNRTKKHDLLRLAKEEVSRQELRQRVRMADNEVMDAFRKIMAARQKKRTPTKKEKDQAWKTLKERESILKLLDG
UniProt O75600: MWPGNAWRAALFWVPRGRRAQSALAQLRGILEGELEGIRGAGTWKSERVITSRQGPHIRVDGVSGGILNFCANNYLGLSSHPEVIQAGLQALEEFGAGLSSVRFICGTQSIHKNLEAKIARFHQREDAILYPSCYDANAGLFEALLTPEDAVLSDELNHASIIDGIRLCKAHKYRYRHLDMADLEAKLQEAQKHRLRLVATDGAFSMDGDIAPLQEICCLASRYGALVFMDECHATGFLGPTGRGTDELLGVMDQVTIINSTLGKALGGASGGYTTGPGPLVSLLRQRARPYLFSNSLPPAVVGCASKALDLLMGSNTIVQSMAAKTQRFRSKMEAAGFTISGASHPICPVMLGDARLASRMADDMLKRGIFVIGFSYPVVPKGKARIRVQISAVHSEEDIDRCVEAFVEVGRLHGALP
UniProt O95900: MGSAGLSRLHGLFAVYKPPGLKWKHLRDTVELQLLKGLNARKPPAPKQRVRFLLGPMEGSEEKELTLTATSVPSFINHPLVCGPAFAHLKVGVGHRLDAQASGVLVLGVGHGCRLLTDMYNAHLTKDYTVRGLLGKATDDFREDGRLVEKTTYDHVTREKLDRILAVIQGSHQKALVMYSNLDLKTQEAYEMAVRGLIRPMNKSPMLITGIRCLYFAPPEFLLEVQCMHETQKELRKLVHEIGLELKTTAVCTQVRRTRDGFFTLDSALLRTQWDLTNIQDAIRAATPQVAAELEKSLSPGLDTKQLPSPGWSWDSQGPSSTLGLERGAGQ
UniProt O95685: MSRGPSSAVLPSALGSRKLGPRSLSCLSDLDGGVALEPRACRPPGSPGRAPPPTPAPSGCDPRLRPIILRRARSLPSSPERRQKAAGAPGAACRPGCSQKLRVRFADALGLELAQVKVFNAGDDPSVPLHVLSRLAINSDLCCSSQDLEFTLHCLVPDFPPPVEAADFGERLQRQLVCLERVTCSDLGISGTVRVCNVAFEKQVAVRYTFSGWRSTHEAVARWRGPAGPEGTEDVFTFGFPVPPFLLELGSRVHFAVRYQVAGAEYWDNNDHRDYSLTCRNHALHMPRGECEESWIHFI
UniProt O94868: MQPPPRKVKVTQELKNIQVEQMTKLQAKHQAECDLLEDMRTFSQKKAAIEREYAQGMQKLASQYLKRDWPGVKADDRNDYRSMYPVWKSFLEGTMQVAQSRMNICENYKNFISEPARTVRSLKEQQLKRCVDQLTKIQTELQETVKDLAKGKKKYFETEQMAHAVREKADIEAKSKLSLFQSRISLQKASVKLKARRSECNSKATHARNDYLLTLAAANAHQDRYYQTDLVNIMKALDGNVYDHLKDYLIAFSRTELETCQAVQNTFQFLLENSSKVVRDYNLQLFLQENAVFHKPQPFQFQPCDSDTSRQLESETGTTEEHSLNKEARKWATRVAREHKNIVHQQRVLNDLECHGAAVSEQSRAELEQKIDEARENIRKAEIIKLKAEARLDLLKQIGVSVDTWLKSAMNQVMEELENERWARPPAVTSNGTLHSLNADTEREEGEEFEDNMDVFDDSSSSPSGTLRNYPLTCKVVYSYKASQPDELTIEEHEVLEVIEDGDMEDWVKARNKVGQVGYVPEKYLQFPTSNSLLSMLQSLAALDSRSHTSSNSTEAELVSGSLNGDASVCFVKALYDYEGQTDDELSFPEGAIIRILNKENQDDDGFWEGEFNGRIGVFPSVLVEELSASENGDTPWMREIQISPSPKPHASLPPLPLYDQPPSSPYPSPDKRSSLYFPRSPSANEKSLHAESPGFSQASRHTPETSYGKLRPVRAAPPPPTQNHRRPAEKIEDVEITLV

Target	log2 fold change
CTAG2 (peptide sequence: GPHGGAASAQDGRCPCGAR, peptide start residue: 63) (UniProt O75638)	-0.54
UniProt O75897 (peptide sequence: KLDDKVLDK, peptide start residue: 221)	0.00538
DDX58 (peptide sequence: YIIAQLMR, peptide start residue: 473) (UniProt O95786)	-0.0121
NADK (peptide sequence: MEMEQEK, peptide start residue: 1) (UniProt O95544)	0.342
UniProt O94763 (peptide sequence: EVLLEASEETGKR, peptide start residue: 510)	-0.138
UniProt O75528 (peptide sequence: WAQEDLLEEQKDGAR, peptide start residue: 200)	-0.186
GCAT (peptide sequence: MADDMLKR, peptide start residue: 362) (UniProt O75600)	0.663
TRUB2 (peptide sequence: SPMLITGIR, peptide start residue: 204) (UniProt O95900)	-0.445
PPP1R3D (peptide sequence: VRFADALGLELAQVK, peptide start residue: 103) (UniProt O95685)	-0.339
TRIO (peptide sequence: LQLTDLLIKPVQR, peptide start residue: 2091) (UniProt O75962)	0.241
FCHSD2 (peptide sequence: SAMNQVMEELENER, peptide start residue: 408) (UniProt O94868)	0.599

Look-ups from above.
DDX58 (peptide sequence: YIIAQLMR, peptide start residue: 473) (UniProt O95786) – log2 fold change: -0.0121
CTAG2 (peptide sequence: GPHGGAASAQDGRCPCGAR, peptide start residue: 63) (UniProt O75638) – log2 fold change: -0.54

From the supplement of paper PMC12819154, “High-throughput peptide-centric local stability assay extends protein–ligand identification to membrane proteins, tissues and bacteria” (Nature Structural & Molecular Biology, 2025)
